Test results published in patent US20160326532A1.
No constants are given. Whether binding was seen depends on the method and setting. For part of these data: In cells and extracts the contact can be indirect. Some entries that bind do so weakly or less than the wild type. Tags and fused reporters may be left off the sequences shown. Blank lines part the entries; values can stand above or below the binder they belong to.

Sequences of proteins named here, by UniProt entry; tags and fusion partners are left off. A change or cut given only in a name is not applied to a line headed by its entry.
UniProt P40337: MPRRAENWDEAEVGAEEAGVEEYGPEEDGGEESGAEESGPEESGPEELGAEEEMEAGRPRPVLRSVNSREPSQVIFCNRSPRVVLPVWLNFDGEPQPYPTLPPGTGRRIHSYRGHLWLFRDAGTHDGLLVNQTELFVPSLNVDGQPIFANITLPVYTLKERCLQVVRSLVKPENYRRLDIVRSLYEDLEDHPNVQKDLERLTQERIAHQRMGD

Columns and labels:
[1] = biological target: HA-tagged VHL (Homo sapiens (Human)) (UniProt P40337); test: co-immunoprecipitation of exogenous proteins from HEK 293T cell extracts (FIG. 9A)
[2] = biological target: pVHL (von Hippel-Lindau protein) (human) (UniProt P40337); test: co-immunoprecipitation of Myc-tagged WSB1 (WT and deletion mutants) with pVHL (FIGS. 10A, 10B)
[3] = biological target: pVHL (von Hippel-Lindau protein) (human) (UniProt P40337); test: in vitro binding assay, GST-WSB1 on GSH Sepharose, immunoblot (FIG. 10D)

binding [1]: binds | binding [2]: binds
B1: Myc-tagged WSB1 (WT) (enzyme, not shown: small tags and cut ends)
chain: MASFPPRVNEKEIVRLRTIGELLAPAAPFDKKCGRENWTVAFAPDGSYFAWSQGHRTVKLVPWSQCLQNFLLHGTKNVTNSSSLRLPRQNSDGGQKNKPREHIIDCGDIVWSLAFGSSVPEKQSRCVNIEWHRFRFGQDQLLLATGLNNGRIKIWDVYTGKLLLNLVDHTEVVRDLTFAPDGSLILVSASRDKTLRVWDLKDDGNMMKVLRGHQNWVYSCAFSPDSSMLCSVGASKAVFLWNMDKYTMIRKLEGHHHDVVACDFSPDGALLATASYDTRVYIWDPHNGDILMEFGHLFPPPTPIFAGGANDRWVRSVSFSHDGLHVASLADDKMVRFWRIDEDYPVQVAPLSNGLCCAFSTDGSVLAAGTHDGSVYFWATPRQVPSLQHLCRMSIRRVMPTQEVQELPIPSKLLEFLSYRI

binding [3]: binds
B2: WSB1 (WT) GST fusion protein (enzyme, not shown: a dimerising Fc or GST)
chain: B1 chain
